Reference: patent US9506017B2, “Aqueous cleaning compositions including an alkyl 3-hydroxybutyrate” (Eastman Chemical Company, priority 2013, dated 2016)

Experiment: Wax scrub test with neat solvents on waxed vinyl floor tile
Conditions: neat solvent; after 1000 strokes for those that did not remove it

SMILES	Removal of wax layer
C=C(C)[C@H]1CC=C(C)CC1 [d-limonene]	did not remove the wax layer
CC(O)CC(=O)OC(C)C (stereo not drawn) [i-propyl 3-hydroxybutyrate, isopropyl 3-hydroxybutyrate]	did not remove the wax layer
CCCCOC(=O)CC(C)O (stereo not drawn) [n-butyl 3-hydroxybutyrate]	did not remove the wax layer

Some compounds share one wording; it may come from a single statement.
